Reference: publication PMC8501799, “Constitutive signal bias mediated by the human GHRHR splice variant 1” (Proceedings of the National Academy of Sciences of the …, 2021)
Substitutions are numbered along the chain they refer to. These are yes or no findings as the source states them, for the method shown. In cells and extracts the contact can be indirect. Some binding calls cover weakened binding; strength is not graded here.

The chains behind the UniProt entries cited, without tags or fusion partners.
UniProt P49407: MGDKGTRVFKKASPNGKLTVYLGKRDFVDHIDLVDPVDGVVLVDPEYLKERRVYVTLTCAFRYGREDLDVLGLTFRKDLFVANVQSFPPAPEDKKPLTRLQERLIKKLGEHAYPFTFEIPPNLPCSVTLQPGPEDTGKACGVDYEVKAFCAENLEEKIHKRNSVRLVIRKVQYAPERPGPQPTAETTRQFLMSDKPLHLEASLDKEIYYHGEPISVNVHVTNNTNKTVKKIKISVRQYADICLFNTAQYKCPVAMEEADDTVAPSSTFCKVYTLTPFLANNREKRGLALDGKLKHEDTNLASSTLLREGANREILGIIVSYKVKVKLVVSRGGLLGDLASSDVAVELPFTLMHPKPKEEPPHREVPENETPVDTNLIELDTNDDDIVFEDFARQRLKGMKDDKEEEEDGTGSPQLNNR

What was measured:
Experiment in all cases: FRET or BRET; β-arrestin 1/2 recruitment assay in live HEK293T cells co-transfected with receptor-Rluc8 and β-arrestin 1/2-Venus (1:9 mass ratio); coelenterazine h; started with 250 μM GHRH; AUC of the BRET time course (535 nm/470 nm) normalised to WT GHRHR = 100%
GHRHR D274A (human) = target: T1, GHRHR D274A (human) (UniProt Q02643)
T1 sequence: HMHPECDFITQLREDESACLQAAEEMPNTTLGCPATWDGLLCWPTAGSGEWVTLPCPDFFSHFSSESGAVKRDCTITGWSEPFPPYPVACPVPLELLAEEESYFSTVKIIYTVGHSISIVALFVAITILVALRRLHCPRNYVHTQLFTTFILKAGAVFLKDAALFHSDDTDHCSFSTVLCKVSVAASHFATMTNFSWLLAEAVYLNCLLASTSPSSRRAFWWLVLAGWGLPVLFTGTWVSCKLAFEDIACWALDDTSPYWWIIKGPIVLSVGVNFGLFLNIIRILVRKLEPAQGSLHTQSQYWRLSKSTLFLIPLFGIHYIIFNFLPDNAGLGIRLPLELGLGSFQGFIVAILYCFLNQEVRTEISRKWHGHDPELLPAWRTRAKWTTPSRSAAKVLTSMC

GHRHR E223A (human) = target: T2, GHRHR E223A (human) (UniProt Q02643)
T2 sequence: T1 sequence with E201A, A252D

GHRHR L337A (human) = target: T3, GHRHR L337A (human) (UniProt Q02643)
T3 sequence: T1 sequence with A252D, L315A

GHRHR L34A (human) = target: T4, GHRHR L34A (human) (UniProt Q02643)
T4 sequence: T1 sequence with L12A, A252D

[1] = target: T5, truncated GHRHR that lacks the first 89 residues (human) (UniProt Q02643)
T5 sequence: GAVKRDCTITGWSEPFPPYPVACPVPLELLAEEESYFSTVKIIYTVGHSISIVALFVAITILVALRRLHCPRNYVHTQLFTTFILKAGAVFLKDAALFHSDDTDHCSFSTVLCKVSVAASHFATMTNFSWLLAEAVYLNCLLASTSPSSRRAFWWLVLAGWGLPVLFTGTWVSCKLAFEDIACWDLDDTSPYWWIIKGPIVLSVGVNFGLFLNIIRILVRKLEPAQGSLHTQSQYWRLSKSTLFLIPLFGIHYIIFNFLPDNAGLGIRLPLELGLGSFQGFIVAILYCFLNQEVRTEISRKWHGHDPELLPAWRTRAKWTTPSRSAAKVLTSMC

binding (GHRHR D274A (human)): binds
binding (GHRHR E223A (human)): binds
binding (GHRHR L337A (human)): binds
binding (GHRHR L34A (human)): binds
binding [1]: binds
Substance: β-arrestin 1-Venus (from UniProt P49407 1-418)
